Results on one substance are retold here after article PMC12582974.

Chains of the proteins cited; added tags and fusions are not shown. Lines headed by an entry give the natural chain unless they say otherwise; changes in a name come on top.
UniProt O43156: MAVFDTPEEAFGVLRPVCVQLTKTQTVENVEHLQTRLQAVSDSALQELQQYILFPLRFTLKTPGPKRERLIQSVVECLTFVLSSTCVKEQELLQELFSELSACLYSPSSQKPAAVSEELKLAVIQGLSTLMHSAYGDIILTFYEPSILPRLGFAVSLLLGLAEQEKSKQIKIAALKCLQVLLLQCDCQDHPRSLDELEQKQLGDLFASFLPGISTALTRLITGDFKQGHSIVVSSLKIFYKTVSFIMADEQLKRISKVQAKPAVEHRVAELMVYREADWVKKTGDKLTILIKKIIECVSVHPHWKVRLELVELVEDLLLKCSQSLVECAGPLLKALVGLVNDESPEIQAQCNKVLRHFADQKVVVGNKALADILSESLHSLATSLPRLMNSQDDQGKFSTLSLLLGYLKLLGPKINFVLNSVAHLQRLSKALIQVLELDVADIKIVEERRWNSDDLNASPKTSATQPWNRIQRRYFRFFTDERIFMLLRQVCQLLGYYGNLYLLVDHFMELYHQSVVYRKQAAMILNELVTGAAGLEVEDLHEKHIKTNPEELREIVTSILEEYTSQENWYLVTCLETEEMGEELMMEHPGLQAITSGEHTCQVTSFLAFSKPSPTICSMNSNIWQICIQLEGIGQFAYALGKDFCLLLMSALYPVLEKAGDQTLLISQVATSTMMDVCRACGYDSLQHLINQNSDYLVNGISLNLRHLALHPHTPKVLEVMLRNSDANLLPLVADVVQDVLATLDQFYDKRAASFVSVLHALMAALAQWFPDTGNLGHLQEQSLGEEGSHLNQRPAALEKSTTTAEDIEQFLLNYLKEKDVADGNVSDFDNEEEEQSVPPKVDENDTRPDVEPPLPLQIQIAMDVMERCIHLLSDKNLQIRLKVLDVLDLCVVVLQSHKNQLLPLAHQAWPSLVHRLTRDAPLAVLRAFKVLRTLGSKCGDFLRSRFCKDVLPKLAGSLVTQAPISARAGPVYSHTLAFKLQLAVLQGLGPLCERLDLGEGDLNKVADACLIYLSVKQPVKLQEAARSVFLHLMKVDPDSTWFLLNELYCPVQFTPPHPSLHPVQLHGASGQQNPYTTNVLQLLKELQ

Results are given in words; binding and its absence hold for the method and conditions named. Sequences can lack the tags named with a protein.

This assay addresses T1, WAC-3xFlag (human WAC with C-terminal 3xFlag tag, pACEMam-WAC-3C-3xFlag) (human) (UniProt Q9BTA9).
T1 sequence: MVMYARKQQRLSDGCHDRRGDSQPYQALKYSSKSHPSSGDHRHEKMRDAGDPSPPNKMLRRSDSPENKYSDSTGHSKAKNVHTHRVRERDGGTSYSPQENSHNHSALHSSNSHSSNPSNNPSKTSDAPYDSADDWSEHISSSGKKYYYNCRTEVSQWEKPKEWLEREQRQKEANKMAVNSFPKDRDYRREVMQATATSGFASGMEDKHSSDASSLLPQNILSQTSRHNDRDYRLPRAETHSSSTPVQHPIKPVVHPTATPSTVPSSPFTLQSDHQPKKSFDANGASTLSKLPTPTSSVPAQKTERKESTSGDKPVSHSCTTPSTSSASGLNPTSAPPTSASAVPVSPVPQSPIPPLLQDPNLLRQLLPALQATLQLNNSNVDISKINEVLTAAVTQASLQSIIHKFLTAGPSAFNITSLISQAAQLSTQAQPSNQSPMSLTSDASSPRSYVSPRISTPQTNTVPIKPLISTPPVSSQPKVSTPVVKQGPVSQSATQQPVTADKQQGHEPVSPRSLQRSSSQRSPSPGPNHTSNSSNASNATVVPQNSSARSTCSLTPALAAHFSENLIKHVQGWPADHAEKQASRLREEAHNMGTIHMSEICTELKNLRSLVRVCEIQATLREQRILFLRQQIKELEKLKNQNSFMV
Nature of the assay: pull-down; WAC-3xFlag from Expi293 lysate purified and held on anti-Flag resin (washes incl. 5 mM ATP/5 mM MgCl2); purified prey added 20 min at 4 °C in 150 mM Tris pH 8, 300 mM KCl, 10% glycerol, 0.5 mM TCEP; elution with 3xFlag peptide; SDS/PAGE and western blot; both purified. In general terms: Immunoblotting shows a protein as a band on a membrane.

Turning to “TTI1-TTI2 subcomplex (TwinStrep-3xHA-3C-TTI1 with untagged TTI2) (from UniProt O43156 1-1089; Q6NXR4 1-508)”, the binding entry is “no binding”.
